No constants are given. Whether binding was seen depends on the method and setting. A result given as binding can be weak or reduced; the word gives no strength.

Sequences and labels used below:
B1: … (SEQ ID NO: 219) (peptide)
peptide: GVVPTIQKV
B2: … (SEQ ID NO: 216) (peptide)
peptide: ALSTVTPRI
B3: … (SEQ ID NO: 238) (peptide)
peptide: HLQEKLQSL
B4: … (SEQ ID NO: 227) (peptide)
peptide: SEMEELPSV
B5: … (SEQ ID NO: 235) (peptide)
peptide: SLLNQPKAV
B6: … (SEQ ID NO: 245) (peptide)
peptide: ALLEEEEGV
B7: … (SEQ ID NO: 243) (peptide)
peptide: GLAEFQENV
B8: … (SEQ ID NO: 220) (peptide)
peptide: ALSELERVL
B9: … (SEQ ID NO: 254) (peptide)
peptide: ALGDKFLLRV
B10: … (SEQ ID NO: 259) (peptide)
peptide: GPGIFPPPPPQP
B11: … (SEQ ID NO: 255) (peptide)
peptide: FLMKNSDLYGA
B12: … (SEQ ID NO: 233) (peptide)
peptide: SLFESLEYL
B13: … (SEQ ID NO: 23) (peptide)
peptide: ALLSPLSLA
B14: … (SEQ ID NO: 247) (peptide)
peptide: NLLIDDKGTIKL
B15: … (SEQ ID NO: 260) (peptide)
peptide: ALNESLVEC
B16: … (SEQ ID NO: 252) (peptide)
peptide: SLMEKNQSL
B17: … (SEQ ID NO: 26) (peptide)
peptide: VLDGKVAVV
B18: … (SEQ ID NO: 230) (peptide)
peptide: KLLNMIFSI
B19: … (SEQ ID NO: 251) (peptide)
peptide: LLWGNLPEI
B20: … (SEQ ID NO: 249) (peptide)
peptide: YLYQILQGI
B21: … (SEQ ID NO: 225) (peptide)
peptide: FLPQPVPLSV
B22: … (SEQ ID NO: 226) (peptide)
peptide: SLAGNLQEL
B23: … (SEQ ID NO: 25) (peptide)
peptide: LLWGHPRVALA
B24: … (SEQ ID NO: 257) (peptide)
peptide: KLIDHQGLYL
B25: … (SEQ ID NO: 228) (peptide)
peptide: SLLELDGINLRL
B26: … (SEQ ID NO: 231) (peptide)
peptide: LLDDIFIRL
B27: … (SEQ ID NO: 253) (peptide)
peptide: KLLAVIHEL
B28: … (SEQ ID NO: 242) (peptide)
peptide: KLQEEIPVL
B29: … (SEQ ID NO: 222) (peptide)
peptide: LLTGVFAQL
B30: … (SEQ ID NO: 241) (peptide)
peptide: KQFEGTVEI
B31: … (SEQ ID NO: 22) (peptide)
peptide: LMYPYIYHV
B32: … (SEQ ID NO: 221) (peptide)
peptide: IMLNSVEEI
B33: … (SEQ ID NO: 224) (peptide)
peptide: LLFDWSGTGRADA
B34: … (SEQ ID NO: 236) (peptide)
peptide: KMSELQTYV
B35: … (SEQ ID NO: 217) (peptide)
peptide: LLWPSSVPA
B36: … (SEQ ID NO: 244) (peptide)
peptide: NVAEIVIHI
B37: … (SEQ ID NO: 214) (peptide)
peptide: ALFETLIQL
B38: … (SEQ ID NO: 215) (peptide)
peptide: QIADIVTSV
B39: … (SEQ ID NO: 237) (peptide)
peptide: ALLEQTGDMSL
B40: … (SEQ ID NO: 229) (peptide)
peptide: YLYELEHAL
B41: … (SEQ ID NO: 3) (peptide)
peptide: RVIDDSLVVGV
B42: … (SEQ ID NO: 258) (peptide)
peptide: QLVQRVASV
B43: … (SEQ ID NO: 223) (peptide)
peptide: ALHPVQFYL
B44: … (SEQ ID NO: 234) (peptide)
peptide: VLLNEILEQV
B45: … (SEQ ID NO: 239) (peptide)
peptide: VIIKGLEEITV
B46: … (SEQ ID NO: 250) (peptide)
peptide: LMQDSRLYL
B47: … (SEQ ID NO: 256) (peptide)
peptide: FLNDIFERI
B48: … (SEQ ID NO: 24) (peptide)
peptide: KVWSDVTPL
B49: … (SEQ ID NO: 248) (peptide)
peptide: VLMQDSRLYL
B50: … (SEQ ID NO: 246) (peptide)
peptide: ALAGIVTNV

For this experiment, the target named is HLA-A*02:01 (human). The experiment can be described thus: UV peptide-exchange ELISA, exchange yield grade. (In general: ELISA stands for enzyme-linked immunosorbent assay.)
On to B1, for which the binding entry is listed as “binds”.
On to B2, for which the binding result is listed as “binds”.
With B3, the binding result is “binds”.
As to B4, the binding entry is “binds”.
The entry for B5 is “binds”; for B6 it is “binds”.
The entry for B7 is “binds”; for B8 it is “binds”; for B9 it is “binds”.
Turning to B10, the binding entry was “binds”.
B11: the binding entry is on record as “binds”.
For the molecule B12, the binding result was “binds”.
As for B13, the binding entry is listed as “binds”.
The entry for B14 is “binds”; for B15 it is “binds”; for B16 it is “binds”.
In the case of B17, the binding entry is “binds”.
In the case of B18, the binding entry is recorded as “binds”.
Consider B19, for which the binding entry is “binds”.
For the molecule B20, the binding result is “binds”.
As to B21, the binding result was “binds”.
In the case of B22, the binding result is reported as “binds”.
As for B23, the binding result is reported as “binds”.
Consider B24, for which the binding result is given as “binds”.
The entry for B25 is “binds”; for B26 it is “binds”.
The same measure for B27: “binds”.
B28: the binding result was “binds”.
For the molecule B29, the binding entry is given as “binds”.
As to B30, the binding result is “binds”.
For the molecule B31, the binding entry is recorded as “binds”.
B32: the binding result was “binds”.
As to B33, the binding entry is listed as “binds”.
Take B34: the binding result is “binds”.
With B35, the binding entry is “binds”.
The entry for B36 is “binds”.
The entry for B37 is “binds”.
Turning to B38, the binding entry is reported as “binds”.
Turning to B39, the binding result is reported as “binds”.
The entry for B40 is “binds”; for B41 it is “binds”; for B42 it is “binds”.
The same measure for B43: “binds”; for B44: “binds”; for B45: “binds”.
B46: the binding result was “binds”.
B47: the binding result is reported as “binds”.
As for B48, the binding entry is given as “binds”.
The same measure for B49: “binds”; for B50: “binds”.
